Test results published in paper PMC10776755.
No constants are given. Whether binding was seen depends on the method and setting. Binding seen in cells or lysates may run through a third protein. A yes stands for co-enrichment or nearness to the bait. Other partners may have been found.

Target: T1, TRIM39 (human (endogenous in HK-2)) (UniProt Q9HCM9)
T1 sequence: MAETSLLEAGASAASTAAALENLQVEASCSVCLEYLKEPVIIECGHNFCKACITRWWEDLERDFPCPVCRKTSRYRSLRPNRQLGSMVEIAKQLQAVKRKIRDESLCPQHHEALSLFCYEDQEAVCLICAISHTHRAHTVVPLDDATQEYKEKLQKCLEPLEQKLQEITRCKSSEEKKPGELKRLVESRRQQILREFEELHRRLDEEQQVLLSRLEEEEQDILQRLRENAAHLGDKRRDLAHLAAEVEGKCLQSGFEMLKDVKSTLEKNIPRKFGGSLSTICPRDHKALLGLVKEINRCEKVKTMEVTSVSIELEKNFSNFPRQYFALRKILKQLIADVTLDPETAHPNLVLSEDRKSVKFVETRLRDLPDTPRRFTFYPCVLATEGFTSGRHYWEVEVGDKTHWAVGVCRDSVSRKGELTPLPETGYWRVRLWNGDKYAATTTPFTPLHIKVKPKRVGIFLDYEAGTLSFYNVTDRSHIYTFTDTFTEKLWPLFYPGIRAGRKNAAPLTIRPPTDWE
Test: affinity purification with mass spectrometry; immunoprecipitation from lysed HK-2 cells with antibody and protein A/G, SDS-PAGE and Coomassie Brilliant Blue staining; mass spectrometry of proteins found with TRIM39

thioredoxin-dependent peroxide reductase (human (endogenous in HK-2))
binding: binds
